Data published in patent US6037354A, “Alpha 1a adrenergic receptor antagonists” (Merck & Co., Inc., priority 1998, dated 2000).
Structures can show the parent of a compound that is named as a salt. At least one compound was matched to its structure with a doubt left.

Test system: human alpha 1b and alpha 1d adrenergic receptors
Experiment: Selective Binding assays ([125I]-HEAT competition, membranes of stably transfected human alpha 1d and alpha 1b cell lines), compared with alpha 1a
Conditions: alpha 1a versus alpha 1b and alpha 1d
Description: Selective Binding assays Membranes prepared from stably transfected human alpha 1d and alpha 1b cell lines (ATCC CRL 11138 and CRL 11139, respectively) were used to identify compounds that selectively bind to the human alpha 1a adrenergic receptor. These competition binding reactions (total volume=200 μl) contained 50 mM Tris-HCl pH. 7.4, 5 mM EDTA, 150 mM NaCl, 100 pM [^125 I]-HEAT, membranes prepared from cell lines transfected with the respective alpha 1 subtype expression plasmid and increasing amounts of unlabeled ligand. Reactions were incubated at room temperature for one hour with shaking. Reactions were filtered onto Whatman GF/C glass fiber filters with a Inotec 96 well cell harvester. Filters were washed three times with ice cold buffer and bound radioactivity was determined (Ki).

COc1ccccc1[C@H]1CC[C@@H](N2CC[C@@H](NC(=O)N3C(=O)OC[C@@H]3c3ccc(F)c(F)c3)C2)CC1 [Example 16, (4S)-cis-4-(3,4-Difluorophenyl)-2-oxooxazolidine-3-carboxylic acid-{1-[4-(2-methoxyphenyl)-cyclohexyl]-(3R)-pyrrolidin-3-yl}amide hydrochloride]
selectivity in binding to alpha 1a receptors versus binding to the alpha 1b and alpha 1d receptors: at least 8 fold
